PubChem BioAssay AID602196, INSERM – 2012
The whole screen tested about 23,000 reagents; this is a part drawn at random. Of all reagents, 455 (2%) got an active call. 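Active includes both protection and sensitisation; some change values fall well beyond the stated -50 to +50 range.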 Unmarked entries are inactive. The record does not give: the amount of reagent.

- Screen: 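Modifiers of cisplatin sensitivity in A549 cells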
- Cell system: human A549 lung cancer cells
- Reagents: siRNA pair against human genes
- Time to read-out: 48 h transfection before cisplatin; time from cisplatin to read-out not stated
- Conditions: cisplatin at a dose killing half of control-siRNA cells; exact dose and duration not given
- Measurement: 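Cisplatin cell death as a shift from the 50% death seen with control siRNA; siRNAs toxic or growth-blocking alone scored 0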
- Direction: two-siRNA summed score (-2 to +2): higher = both siRNAs protect from cisplatin killing; -2 means both sensitise; mean protection from cisplatin (shift in death) and protection from cisplatin (shift in death), siRNA C and protection from cisplatin (shift in death), siRNA D: higher = protection from cisplatin killing
- Active means: 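siRNAs harmful alone (LDH or WST-1) get 0; others get +1 for less and -1 for more cisplatin killing; genes are active when the two siRNAs give the same sign, summing to ±2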
- Meaning of the calls: active = both siRNAs shift cisplatin killing the same way; inactive = no consistent shift, or siRNA harmful alone

| target | two-siRNA summed score (-2 to +2) | mean protection from cisplatin (shift in death) (%) | protection from cisplatin (shift in death), siRNA C (%) | protection from cisplatin (shift in death), siRNA D (%) |
| --- | --- | --- | --- | --- |
| LMOD3 (GeneID 56203) | 0 | 0.6 | -0.3 | 1.4 |
| LOC441447 | 0 | 25 | 22.5 | 27.6 |
| LPGAT1 (GeneID 9926) | 1 | 7.6 | 4.3 | 10.9 |
| UPF3A (GeneID 65110) | 0 | 4.8 | 8.6 | 1.1 |
| SPATA6L (GeneID 55064) | 0 | 4 | 5.1 | 2.9 |
| EIF3K (GeneID 27335) | 0 | 1.3 | -4.6 | 7.3 |
| LRIT3 (GeneID 345193) | -1 | -5.5 | 1.5 | -12.5 |

Reprinted from the entries so far (2 entries):
| target | two-siRNA summed score (-2 to +2) | mean protection from cisplatin (shift in death) (%) | protection from cisplatin (shift in death), siRNA C (%) | protection from cisplatin (shift in death), siRNA D (%) |
| --- | --- | --- | --- | --- |
| UPF3A (GeneID 65110) | 0 | 4.8 | 8.6 | 1.1 |
| SPATA6L (GeneID 55064) | 0 | 4 | 5.1 | 2.9 |

The results go on:
| target | two-siRNA summed score (-2 to +2) | mean protection from cisplatin (shift in death) (%) | protection from cisplatin (shift in death), siRNA C (%) | protection from cisplatin (shift in death), siRNA D (%) |
| --- | --- | --- | --- | --- |
| LOC441561 | 0 | 10 | 9.4 | 10.5 |
| LOC441129 | 0 | 14.7 | 9.1 | 20.4 |
| LOC440129 | 1 | 14.3 | 10.4 | 18.2 |
| ACE (GeneID 1636) | 0 | 0 | 3.5 | -3.6 |
| JAKMIP1 (GeneID 152789) | 0 | -7.7 | -6.7 | -8.6 |
| PPP1R7 (GeneID 5510) | 0 | 2.4 | -8.5 | 13.2 |
| KLK14 (GeneID 43847) | -1 | -3.9 | 9.1 | -16.9 |
| PRIMPOL (GeneID 201973) | 0 | 2.8 | 1 | 4.6 |
| NEUROD1 (GeneID 4760) | 1 | 9.8 | -2.4 | 22 |
| ATP5MC2 (GeneID 517) | 0 | 8.5 | 12.5 | 4.4 |
| TYSND1 (GeneID 219743) | 0 | 3.7 | 13.6 | -6.1 |
| MRTFA (GeneID 57591) | 0 | 9.6 | 10.3 | 8.9 |
| FGFBP1 (GeneID 9982) | 0 | 4 | 0.1 | 7.8 |
| TNNT1 (GeneID 7138) | 0 | 8.9 | -15.4 | 33.1 |
| LILRB5 (GeneID 10990) | 0 | 1.6 | 9.4 | -6.3 |
| GRB2 (GeneID 2885) | -1 | -15 | 7.6 | -37.6 |
